Here are results for four sequences from paper PMC12370185.

Common to all, as to conditions: 10 mM Tris-Cl pH 7.5, 50 mM NaCl, 1 mM DTT, 0.25 mg/ml BSA, 2 mM MgCl2, 0.025% Nonidet P-40, 5% glycerol; 28 nM nucleosome library; 10 min on ice then 30 min …; high values mean tight binding; double strand, one strand shown
For one assay, the system named is KLF4 + histone octamer. As to the kind of experiment: EMSA with sequencing. For orientation: Mobility shift assays separate free from complexed probe on a gel.
A further assay has as its system SOX2 + histone octamer. Briefly: EMSA with sequencing.
For assay [1], the system named is c-MYC + MAX + histone octamer. Briefly: EMSA with sequencing.
In the next assay the test system is OCT4 + histone octamer. Briefly: Pioneer-seq (competitive nucleosome EMSA with sequencing).

The list shows a part of the results. For some of these results: At the low end of the ranking the order means little.

As to “GATGGACCCTATACGCGGCATTCTCTAAATCCCAAGTATCTCCCCCTGCTTAAAGACTCCTTCAGAGTCCTTTGTTGAAAACATTGTACCCCTCTCAATTAGCTACACTTACAGTTGTCATTCACTTTTCAACACCCACCCCCATGCATTACAATGTAGCTAAGTGCTCTAGCTGAAGTTATAAAAGACATCCTAATCACCAAGTCTCAGTGCCAGTCGGATAGTGTTCC”, the binding signal (log2 relative supershift) was 0.554 with KLF4 + histone octamer, 1.11 in the assay with SOX2 + histone octamer, 0.241 in assay [1] and -0.0597 with OCT4 + histone octamer.
Taken in the same sequence, the figures for “GATGGACCCTATACGCGGCTCTTGCACCAGTGAAAACTCTGTTACCACACAACTGGAGTTCATACACTGGCATCTAGGAGCCACTCTTTTAGAGCAGTGTTTCCATCTCAAACCATACCATTGTCTAGTAAGCTGACCATTTGCTTTTGGGAACCCAGATGTGAAGAAGTGAAGGAGGGGAGAGGAAGAGAGAACAGAACTAAGATGTTTTGCCAGTCGGATAGTGTTCC” were 1.99, 0.831, 0.14 and -0.0258.
Taken in the same sequence, the figures for “GATGGACCCTATACGCGGCTAAATAAAACTGAGGTTATATAGTCATGCATTTAATAATAGTGATAGATGCAGGAGGCATGCAGATGCAGATAAGGAAACCTGCACAGGGTCTTGCCCGGGCGTGCCTGCAAGGGACTGGGGCCCACATGTGCACTAGGAGAAGGGGGTGGAGCCACCAAGAATTCATGCCTTATGCAGGGGAGGAGACTGTGCCAGTCGGATAGTGTTCC” were 1.8, 0.521, 0.069 and -0.0295.
For the sequence “GATGGACCCTATACGCGGCGGGGGTGGGTATGCTTAGTAATACAGAGTGGTGTGTGTATGGTATATGTGTGGCAGTGCAGTGCGTGTATCTGGCATGTCGAGTGTGCACATGGCATATACGGATCAAATCGGGTGTGTGTGGTACATAGGAGTGGGTGGGCACACAAACAGGACTCATGTATGCGGAGGACTCTGCCTTTCTGTGTTAGCTGCCAGTCGGATAGTGTTCC”, the binding signal (log2 relative supershift) in the assay with KLF4 + histone octamer was 2.27; with SOX2 + histone octamer, 0.645; in assay [1], 0.53; in the assay on OCT4 + histone octamer, -0.501.
